The data set deals with MCF7, Huh7, HepG2. The data set is described as follows: Confocal microscope analysis of intracellular localization of PEP1 and TAT. Format: cell-based, human. The following applies: Pearson's Coeff. of co-localization with nucleus.

For “EARPALLTSRLRFIPK (listed as Homo sapiens) [pep1]”, the intracellular localization entry was “stayed in the cytoplasm without being localized into the nucleus”.
